Source: PubChem BioAssay AID328 (DTP/NCI, 2004)
The list is a part of this screen's results and no random one: it is rich in T/C values a quarter to a half above the control, in often repeated tests (any T/C) and in doses without a T/C. Further doses and runs are listed elsewhere. T/C: endpoint of the treated group in % of that of the vehicle group. Some entries give survivors of the animals treated and no T/C: the source holds a T/C of zero for them, seemingly a mark for toxic or unscored doses. Some doses without a T/C left all or most animals alive at the check, yet need not have been tolerated: the source hardly ever lists a survival T/C far under the control, and the zero likely stands for such cases as well. Counts of survivors are from the toxicity check (mostly the fifth day) where no day follows; animals may have died later. Schedules are NCI's codes, taken here to give the interval after Q, in days (D) or hours (H), and the number of doses after X. Some entries hold several experiments; the results are listed from low to high. For survival time, the PubChem record calls one and a half times the control and up active, and a quarter to a half above the control has no call in these data; cut-offs in other NCI protocols can differ. Some T/C values are followed by the survivors on the day toxicity was checked, most often the fifth; without a count, all were alive then.

Test system: BDF1 mice, P388 leukemia ip, median survival T/C
Experiment: NCI In Vivo Anticancer Drug Screen. Data for tumor model P388 Leukemia (intraperitoneal) in B6D2F1 (BDF1) mice
Conditions: T/C endpoint: median survival time, higher T/C = longer survival
Method in brief: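 Reported as T/C, where T is the survival measurement in dosed animals and C the same measurement in vehicle controls.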

[1] = dose: 150.0 mg/kg/injection, schedule: Q01DX009 (ip), vehicle: saline
[2] = dose: 200.0 mg/kg/injection, schedule: Q04DX003 (ip), vehicle: saline with Tween-80

Structure (SMILES): C=CCOP(=O)(N1CC1C)N1CC1C (stereo unspecified)
- T/C (dose: 33.0 mg/kg/injection, schedule: Q01DX009 (ip), vehicle: saline): 146 % of control
- T/C (dose: 37.0 mg/kg/injection, schedule: Q01DX009 (ip), vehicle: saline): 130 % of control
- T/C (dose: 50.0 mg/kg/injection, schedule: Q01DX009 (ip), vehicle: saline): 142 and 146 % of control
- T/C (dose: 67.0 mg/kg/injection, schedule: Q04DX003 (ip), vehicle: saline): 128 and 136 % of control
- survivor count (dose: 112.0 mg/kg/injection, schedule: Q01DX009 (ip), vehicle: saline): 6 of 6
- survivor count [1]: 6 of 6
- survivor count (dose: 200.0 mg/kg/injection, schedule: Q04DX003 (ip), vehicle: saline): 6 of 6
- survivor count (dose: 400.0 mg/kg/injection, schedule: Q04DX003 (ip), vehicle: saline): 5 of 6

Structure (SMILES): Br/C(C=Nc1ccccc1)=C\Nc1ccccc1
- survivor count (dose: 400.0 mg/kg/injection, schedule: Q01DX009 (ip), vehicle: saline with Tween-80): 4 of 6

Structure (SMILES): CCCCCCCCSC(=S)SCC(=O)O
- survivor count (dose: 200.0 mg/kg/injection, schedule: Q01DX009 (ip), vehicle: saline with Tween-80): 2 of 6

Structure (SMILES): NC(=S)N/N=C/c1ccc2c(c1)OCO2
- survivor count [2]: 6 of 6

Structure (SMILES): COc1cccc2c1C(=O)c1c(O)c3c(c(O)c1C2=O)C[C@@](O)(/C(C)=N/NC(=O)c1ccccc1)C[C@@H]3OC1CC(N(C)C)C(O)C(C)O1 (stereo partly specified)
- survivor count (dose: 12.5 mg/kg/injection, schedule: Q01DX009 (ip), vehicle: water): 5 of 6

Structure (SMILES): COc1ccc(C2CCc3cc(OC)c(OC)cc3C2=O)cc1OC (stereo unspecified)
- survivor count (dose: 40.0 mg/kg/injection, schedule: Q01DX009 (ip), vehicle: saline with Tween-80): 6 of 6
- survivor count (dose: 240.0 mg/kg/injection, schedule: Q01DX009 (ip), vehicle: saline with Tween-80): 6 of 6

Structure (SMILES): CCC(C)C(NC(=O)OCc1ccccc1)C(=O)ON1C(=O)CCC1=O (stereo unspecified)
- T/C [2]: 127 % of control

Structure (SMILES): C[n+]1ccc(NC(=O)c2ccc(NC(=O)c3cccc(C(=O)Nc4ccc(C(=O)Nc5cc[n+](C)cc5)cc4)c3)cc2)cc1
- survivor count (dose: 150.0 mg/kg/injection, schedule: Q04DX003 (ip), vehicle: saline with Tween-80): 6 of 6

Structure (SMILES): O=c1[nH]cnc2ccnn12
- survivor count [1]: 4 of 6

Structure (SMILES): COc1cc2c(c(OC)c1OC)-c1ccc(SCc3ccccc3)c(=O)cc1[C@@H](NC(C)=O)CC2
- T/C (dose: 6.25 mg/kg/injection, schedule: Q01DX009 (ip), vehicle: Klucel (hydroxypropylcellulose) (HPC)): 146 % of control [5 of 6 alive]
- T/C (dose: 12.5 mg/kg/injection, schedule: Q01DX009 (ip), vehicle: Klucel (hydroxypropylcellulose) (HPC)): 132 % of control
- survivor count (dose: 18.0 mg/kg/injection, schedule: Q01DX009 (ip), vehicle: Klucel (hydroxypropylcellulose) (HPC)): 6 of 6
- survivor count (dose: 25.0 mg/kg/injection, schedule: Q01DX009 (ip), vehicle: Klucel (hydroxypropylcellulose) (HPC)): 4 of 6 and 6 of 6
- survivor count (dose: 50.0 mg/kg/injection, schedule: Q01DX009 (ip), vehicle: Klucel (hydroxypropylcellulose) (HPC)): 0 of 6
- survivor count (dose: 100.0 mg/kg/injection, schedule: Q01DX009 (ip), vehicle: Klucel (hydroxypropylcellulose) (HPC)): 0 of 6
- survivor count (dose: 200.0 mg/kg/injection, schedule: Q01DX009 (ip), vehicle: Klucel (hydroxypropylcellulose) (HPC)): 0 of 6
- survivor count (dose: 400.0 mg/kg/injection, schedule: Q01DX009 (ip), vehicle: Klucel (hydroxypropylcellulose) (HPC)): 0 of 6

Structure (SMILES): CC#CCOCC1CN(C)C(=O)O1 (stereo unspecified)
- survivor count (dose: 100.0 mg/kg/injection, schedule: Q04DX003 (ip), vehicle: saline): 6 of 6
